According to paper PMC4961794:
Results are given in words; binding and its absence hold for the method and conditions named. In cells and extracts the contact can be indirect. Here binding means that the protein was enriched with, or labelled near, the bait; the list need not be complete.

Chains of the proteins cited; added tags and fusions are not shown.
UniProt Q9NRC8: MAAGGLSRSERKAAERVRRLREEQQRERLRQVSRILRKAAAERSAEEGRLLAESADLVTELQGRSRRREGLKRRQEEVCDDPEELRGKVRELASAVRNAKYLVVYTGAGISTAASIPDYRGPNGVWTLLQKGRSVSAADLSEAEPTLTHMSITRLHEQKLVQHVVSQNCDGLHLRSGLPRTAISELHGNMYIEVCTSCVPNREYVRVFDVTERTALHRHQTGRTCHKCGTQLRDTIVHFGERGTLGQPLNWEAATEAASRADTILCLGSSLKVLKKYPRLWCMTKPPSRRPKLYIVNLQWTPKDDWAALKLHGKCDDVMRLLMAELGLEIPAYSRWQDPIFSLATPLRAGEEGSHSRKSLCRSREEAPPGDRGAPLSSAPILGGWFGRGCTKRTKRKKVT
UniProt P09874: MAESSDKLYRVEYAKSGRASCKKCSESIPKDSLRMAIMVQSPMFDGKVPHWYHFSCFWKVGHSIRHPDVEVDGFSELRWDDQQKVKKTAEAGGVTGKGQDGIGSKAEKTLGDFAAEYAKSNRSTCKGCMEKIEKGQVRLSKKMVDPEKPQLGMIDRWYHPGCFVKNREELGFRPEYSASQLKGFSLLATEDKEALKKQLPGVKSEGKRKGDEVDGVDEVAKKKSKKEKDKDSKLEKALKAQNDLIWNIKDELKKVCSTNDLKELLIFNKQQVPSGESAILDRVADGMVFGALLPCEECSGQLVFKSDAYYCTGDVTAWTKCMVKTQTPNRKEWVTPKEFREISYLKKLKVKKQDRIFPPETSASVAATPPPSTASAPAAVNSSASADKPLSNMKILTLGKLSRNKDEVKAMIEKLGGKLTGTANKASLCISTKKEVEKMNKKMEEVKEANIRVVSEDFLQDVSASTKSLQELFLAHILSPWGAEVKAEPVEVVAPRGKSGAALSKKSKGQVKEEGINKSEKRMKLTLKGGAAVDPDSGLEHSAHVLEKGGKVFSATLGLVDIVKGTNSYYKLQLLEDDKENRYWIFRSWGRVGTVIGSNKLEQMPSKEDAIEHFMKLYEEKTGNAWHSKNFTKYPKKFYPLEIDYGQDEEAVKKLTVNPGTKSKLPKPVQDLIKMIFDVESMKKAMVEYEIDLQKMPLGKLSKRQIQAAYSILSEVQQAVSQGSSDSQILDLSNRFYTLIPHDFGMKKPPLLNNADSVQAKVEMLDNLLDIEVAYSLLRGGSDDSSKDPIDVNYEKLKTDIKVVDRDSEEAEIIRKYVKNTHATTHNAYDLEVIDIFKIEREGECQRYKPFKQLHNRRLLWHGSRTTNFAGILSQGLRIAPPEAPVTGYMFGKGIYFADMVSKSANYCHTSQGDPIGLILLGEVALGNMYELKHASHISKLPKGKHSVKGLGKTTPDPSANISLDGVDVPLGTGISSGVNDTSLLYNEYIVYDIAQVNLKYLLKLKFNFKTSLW
UniProt Q92878: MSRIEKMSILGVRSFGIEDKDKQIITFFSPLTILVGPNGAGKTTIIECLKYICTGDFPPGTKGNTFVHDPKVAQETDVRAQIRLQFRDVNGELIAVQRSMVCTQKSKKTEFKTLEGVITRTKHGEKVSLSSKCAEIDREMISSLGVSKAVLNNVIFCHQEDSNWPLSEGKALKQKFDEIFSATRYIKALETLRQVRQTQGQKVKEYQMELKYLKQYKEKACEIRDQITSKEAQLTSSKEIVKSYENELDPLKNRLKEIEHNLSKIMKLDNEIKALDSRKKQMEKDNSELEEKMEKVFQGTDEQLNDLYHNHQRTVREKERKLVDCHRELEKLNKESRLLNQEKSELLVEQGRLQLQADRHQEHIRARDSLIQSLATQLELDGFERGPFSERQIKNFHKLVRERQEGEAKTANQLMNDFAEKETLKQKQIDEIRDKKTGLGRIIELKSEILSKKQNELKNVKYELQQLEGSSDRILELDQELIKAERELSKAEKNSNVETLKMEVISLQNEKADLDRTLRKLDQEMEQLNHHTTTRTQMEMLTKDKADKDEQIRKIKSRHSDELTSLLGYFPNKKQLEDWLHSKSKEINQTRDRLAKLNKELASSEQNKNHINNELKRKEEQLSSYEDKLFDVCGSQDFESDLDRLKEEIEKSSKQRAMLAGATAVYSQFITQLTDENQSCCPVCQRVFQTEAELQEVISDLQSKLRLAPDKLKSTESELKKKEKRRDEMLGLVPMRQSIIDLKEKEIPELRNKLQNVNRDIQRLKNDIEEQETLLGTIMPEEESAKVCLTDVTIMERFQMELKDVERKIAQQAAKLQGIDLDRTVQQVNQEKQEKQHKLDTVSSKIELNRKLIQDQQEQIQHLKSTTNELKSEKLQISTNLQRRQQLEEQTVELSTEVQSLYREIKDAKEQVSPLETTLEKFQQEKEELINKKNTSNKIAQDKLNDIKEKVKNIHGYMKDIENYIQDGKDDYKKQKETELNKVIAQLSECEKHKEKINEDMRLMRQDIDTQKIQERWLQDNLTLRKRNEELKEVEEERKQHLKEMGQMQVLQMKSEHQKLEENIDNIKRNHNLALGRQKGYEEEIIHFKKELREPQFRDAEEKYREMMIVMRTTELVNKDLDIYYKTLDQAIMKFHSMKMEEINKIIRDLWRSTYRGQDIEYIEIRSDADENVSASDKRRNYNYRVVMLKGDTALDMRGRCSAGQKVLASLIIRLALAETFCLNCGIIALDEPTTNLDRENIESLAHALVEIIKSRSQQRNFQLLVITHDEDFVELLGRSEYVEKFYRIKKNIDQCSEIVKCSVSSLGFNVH
UniProt P12956: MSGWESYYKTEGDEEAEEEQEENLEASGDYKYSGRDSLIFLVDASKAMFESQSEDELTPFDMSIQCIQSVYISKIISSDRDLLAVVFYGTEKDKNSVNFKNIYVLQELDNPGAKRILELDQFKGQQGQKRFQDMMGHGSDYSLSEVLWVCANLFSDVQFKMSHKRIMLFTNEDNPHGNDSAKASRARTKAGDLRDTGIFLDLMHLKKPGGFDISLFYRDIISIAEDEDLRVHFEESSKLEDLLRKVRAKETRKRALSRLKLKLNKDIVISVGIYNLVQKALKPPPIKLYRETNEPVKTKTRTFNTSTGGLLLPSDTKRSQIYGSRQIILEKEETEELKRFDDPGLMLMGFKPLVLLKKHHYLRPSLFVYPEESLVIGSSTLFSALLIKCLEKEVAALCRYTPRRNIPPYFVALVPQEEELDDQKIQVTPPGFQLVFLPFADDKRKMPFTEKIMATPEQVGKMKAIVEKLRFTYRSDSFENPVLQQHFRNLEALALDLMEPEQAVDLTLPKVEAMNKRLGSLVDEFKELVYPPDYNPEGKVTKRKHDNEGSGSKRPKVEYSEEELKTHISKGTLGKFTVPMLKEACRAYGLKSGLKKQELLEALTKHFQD
UniProt P13010: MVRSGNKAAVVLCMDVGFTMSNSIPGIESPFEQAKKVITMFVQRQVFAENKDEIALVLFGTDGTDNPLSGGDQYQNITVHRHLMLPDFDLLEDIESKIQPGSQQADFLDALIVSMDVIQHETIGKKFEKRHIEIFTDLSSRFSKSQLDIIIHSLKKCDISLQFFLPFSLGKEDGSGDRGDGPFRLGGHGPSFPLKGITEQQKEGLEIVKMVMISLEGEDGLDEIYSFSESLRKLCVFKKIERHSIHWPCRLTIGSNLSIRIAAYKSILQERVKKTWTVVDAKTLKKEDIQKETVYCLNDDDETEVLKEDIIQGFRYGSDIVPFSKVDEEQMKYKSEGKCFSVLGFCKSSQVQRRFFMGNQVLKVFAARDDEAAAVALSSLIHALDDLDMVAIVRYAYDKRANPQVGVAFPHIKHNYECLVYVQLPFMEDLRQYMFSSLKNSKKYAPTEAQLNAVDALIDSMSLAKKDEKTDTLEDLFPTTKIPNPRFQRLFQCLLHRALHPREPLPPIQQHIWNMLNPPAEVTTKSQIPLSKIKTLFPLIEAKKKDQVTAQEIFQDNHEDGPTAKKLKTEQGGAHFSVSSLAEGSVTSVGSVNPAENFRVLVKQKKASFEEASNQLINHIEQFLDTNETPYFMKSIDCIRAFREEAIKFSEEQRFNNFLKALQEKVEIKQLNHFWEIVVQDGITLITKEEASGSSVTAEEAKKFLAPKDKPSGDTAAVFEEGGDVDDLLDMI

What follows are substances tested against FLAG-SIRT7wt (human) (UniProt Q9NRC8) (assay: affinity purification with mass spectrometry; whole-cell extracts of HEK293T cells expressing vector or FLAG-SIRT7wt; lysis buffer 50 mM Tris-HCl pH 7.4, 150 mM NaCl, 0.3% Nonidet P-40, 1 mM DTT, 5 mM EDTA; anti-FLAG M2 gel 2 h at 4 °C; eluted with FLAG peptide; gel silver stained; bands analysed by LC-MS/MS).

| Substance | binding |
| --- | --- |
| DNA-PKcs (from UniProt P78527 1-4128) | binds |
| PARP1 (from UniProt P09874 1-1014) | binds |
| RAD50 (from UniProt Q92878 1-1312) | binds |

Continued, values first:

| binding | Substance |
| --- | --- |
| binds | Ku70 (from UniProt P12956 1-609) |
| binds | Ku80 (from UniProt P13010 1-732) |
